Measurements published in patent US7772003B2, “Lipid derivatives of aminoglycosides” (Aventis Pharma S.A., priority 2001, dated 2010).
At least one compound was matched to its structure with a doubt left.

Tested on: HeLa, HEK293 and COS cells
Experiment: In vitro transfection, dose-response (luciferase reporter gene expression)
Assay type: cell-based
Details: lipoplexes with 5 μg plasmid DNA expressing luciferase, data in RLU per mg of cellular proteins
Procedure: FIG. 2: Dose-response curves of the in vitro transfection activity of the transfecting compound “KanaChol”. The expression of the reporter gene is indicated as a function of the charge ratio of the lipoplexes formed with the plasmid DNA. The HeLa, HEK293 and COS cells were transfected in accordance with the protocol described in Example 3 using lipoplexes prepared by mixing 5 μg of plasmid DNA expressing luciferase with the required amount of lipid. The data are expressed in relative light units (RLU) per mg of cellular proteins.
FIG. 3: Dose-response curves of the in vitro transfection activity of the KanaChol/DOPE (molar ratio 1:1) liposomes. The expression of the reporter gene is indicated as a function of the charge ratio of the lipoplexes formed with the plasmid DNA. The HeLa, HEK293 and COS cells were transfected in accordance with the protocol described in Example 4 using lipoplexes prepared by mixing 5 μg of plasmid DNA expressing luciferase with the required amount of lipid to form lipoplexes characterized by the charge ratio indicated. […]
A 20 μl aliquot of supernatant of the centrifuged lysate was diluted in 100 μl of lysis buffer, to which 4 μl of 25 mM ATP (Sigma) and 20 μl of 25 mM luciferin (Sigma) were added. The samples were then placed in a Lumet LB9501 luminometer (Berthold, Nashua, N.H.) and the light emission integration value was measured for 10 seconds. […]

NC[C@H]1O[C@H](O[C@H]2[C@H](O)[C@@H](O[C@H]3O[C@H](CO)[C@@H](O)[C@H](N)[C@H]3O)[C@H](N)C[C@@H]2N)[C@H](O)[C@@H](O)[C@@H]1O [kanamycin, reference compound]
expression of the reporter gene luciferase (transfection): no transfection was observed
